The supplement of paper PMC12067093, “Discovery and optimisation of a covalent ligand for TRIM25 and its application to targeted protein ubiquitination” (Chemical Science, 2025)
The list shows a part of the results.

Protein sequences, listed by entry. Tags and fused reporters are not part of them. Lines headed by an entry give the natural chain unless they say otherwise; changes in a name come on top.
UniProt P49589: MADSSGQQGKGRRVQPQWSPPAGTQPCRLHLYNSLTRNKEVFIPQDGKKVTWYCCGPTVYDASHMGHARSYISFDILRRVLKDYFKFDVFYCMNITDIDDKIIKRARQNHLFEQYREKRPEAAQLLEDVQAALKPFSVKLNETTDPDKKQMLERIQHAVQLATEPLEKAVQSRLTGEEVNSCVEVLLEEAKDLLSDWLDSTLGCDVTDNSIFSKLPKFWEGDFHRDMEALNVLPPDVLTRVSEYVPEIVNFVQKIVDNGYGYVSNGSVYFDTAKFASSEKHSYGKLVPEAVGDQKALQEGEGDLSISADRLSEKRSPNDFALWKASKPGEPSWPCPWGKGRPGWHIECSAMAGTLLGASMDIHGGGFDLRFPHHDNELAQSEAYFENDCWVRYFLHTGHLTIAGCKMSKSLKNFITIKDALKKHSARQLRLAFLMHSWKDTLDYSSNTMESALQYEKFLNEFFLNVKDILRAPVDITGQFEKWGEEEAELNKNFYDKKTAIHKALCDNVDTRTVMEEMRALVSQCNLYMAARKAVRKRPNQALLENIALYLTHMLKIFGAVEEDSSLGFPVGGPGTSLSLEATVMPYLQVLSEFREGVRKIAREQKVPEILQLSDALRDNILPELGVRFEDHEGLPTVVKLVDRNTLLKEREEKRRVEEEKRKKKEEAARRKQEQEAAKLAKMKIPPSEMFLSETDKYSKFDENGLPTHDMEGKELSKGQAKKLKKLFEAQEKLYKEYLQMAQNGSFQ
UniProt Q8IX12: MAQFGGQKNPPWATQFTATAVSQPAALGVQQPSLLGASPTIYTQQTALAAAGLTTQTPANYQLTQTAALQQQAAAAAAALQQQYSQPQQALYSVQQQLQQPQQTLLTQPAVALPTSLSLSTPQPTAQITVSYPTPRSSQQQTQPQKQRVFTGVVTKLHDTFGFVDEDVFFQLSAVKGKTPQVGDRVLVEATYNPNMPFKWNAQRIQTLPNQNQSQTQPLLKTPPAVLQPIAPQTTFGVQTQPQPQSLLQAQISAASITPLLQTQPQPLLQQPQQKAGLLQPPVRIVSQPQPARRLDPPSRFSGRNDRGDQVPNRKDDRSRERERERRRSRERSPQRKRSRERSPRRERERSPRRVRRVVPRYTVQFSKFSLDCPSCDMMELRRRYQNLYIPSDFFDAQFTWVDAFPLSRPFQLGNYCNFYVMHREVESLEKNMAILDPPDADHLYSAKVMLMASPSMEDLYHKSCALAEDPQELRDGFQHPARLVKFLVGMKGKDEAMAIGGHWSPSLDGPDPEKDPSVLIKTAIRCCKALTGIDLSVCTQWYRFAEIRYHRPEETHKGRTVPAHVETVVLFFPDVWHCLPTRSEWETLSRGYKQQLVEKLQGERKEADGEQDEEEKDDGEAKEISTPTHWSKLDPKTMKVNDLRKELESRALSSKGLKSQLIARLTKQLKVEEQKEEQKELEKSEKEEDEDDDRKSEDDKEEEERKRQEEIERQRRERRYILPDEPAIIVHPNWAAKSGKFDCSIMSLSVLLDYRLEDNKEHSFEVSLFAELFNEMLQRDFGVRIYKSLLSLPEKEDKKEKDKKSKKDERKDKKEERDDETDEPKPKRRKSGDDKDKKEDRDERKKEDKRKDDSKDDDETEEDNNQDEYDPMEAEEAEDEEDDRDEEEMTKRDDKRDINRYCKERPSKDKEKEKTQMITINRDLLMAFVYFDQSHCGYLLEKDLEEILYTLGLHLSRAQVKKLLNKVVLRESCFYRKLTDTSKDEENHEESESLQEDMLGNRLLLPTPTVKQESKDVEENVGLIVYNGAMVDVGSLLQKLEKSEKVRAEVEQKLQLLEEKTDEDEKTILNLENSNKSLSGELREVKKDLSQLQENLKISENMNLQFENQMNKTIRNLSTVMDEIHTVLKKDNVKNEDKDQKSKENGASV
UniProt Q6P1N0: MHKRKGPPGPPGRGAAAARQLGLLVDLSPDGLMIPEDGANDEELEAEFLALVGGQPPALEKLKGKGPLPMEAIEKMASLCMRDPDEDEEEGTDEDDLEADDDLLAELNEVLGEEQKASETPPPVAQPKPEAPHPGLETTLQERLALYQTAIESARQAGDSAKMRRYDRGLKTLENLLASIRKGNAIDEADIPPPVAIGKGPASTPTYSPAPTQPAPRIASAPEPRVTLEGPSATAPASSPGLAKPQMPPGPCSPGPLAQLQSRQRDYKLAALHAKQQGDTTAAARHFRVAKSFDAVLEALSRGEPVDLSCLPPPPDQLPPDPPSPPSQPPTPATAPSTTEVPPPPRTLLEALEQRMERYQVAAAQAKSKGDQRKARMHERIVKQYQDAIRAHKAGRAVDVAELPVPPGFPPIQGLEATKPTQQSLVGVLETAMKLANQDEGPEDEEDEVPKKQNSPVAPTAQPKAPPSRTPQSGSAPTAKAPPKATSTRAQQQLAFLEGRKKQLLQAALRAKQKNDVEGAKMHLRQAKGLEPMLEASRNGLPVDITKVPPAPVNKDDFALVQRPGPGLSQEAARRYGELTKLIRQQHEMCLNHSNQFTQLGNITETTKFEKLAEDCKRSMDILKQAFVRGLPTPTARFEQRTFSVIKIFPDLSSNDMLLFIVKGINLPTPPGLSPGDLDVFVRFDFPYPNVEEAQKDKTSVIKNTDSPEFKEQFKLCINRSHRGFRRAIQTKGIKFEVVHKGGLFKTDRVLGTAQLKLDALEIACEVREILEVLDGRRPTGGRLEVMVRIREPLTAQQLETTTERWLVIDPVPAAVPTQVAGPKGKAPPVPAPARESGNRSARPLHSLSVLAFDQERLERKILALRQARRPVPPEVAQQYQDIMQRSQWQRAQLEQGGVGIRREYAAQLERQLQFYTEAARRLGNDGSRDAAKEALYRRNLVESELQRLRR
UniProt Q14790: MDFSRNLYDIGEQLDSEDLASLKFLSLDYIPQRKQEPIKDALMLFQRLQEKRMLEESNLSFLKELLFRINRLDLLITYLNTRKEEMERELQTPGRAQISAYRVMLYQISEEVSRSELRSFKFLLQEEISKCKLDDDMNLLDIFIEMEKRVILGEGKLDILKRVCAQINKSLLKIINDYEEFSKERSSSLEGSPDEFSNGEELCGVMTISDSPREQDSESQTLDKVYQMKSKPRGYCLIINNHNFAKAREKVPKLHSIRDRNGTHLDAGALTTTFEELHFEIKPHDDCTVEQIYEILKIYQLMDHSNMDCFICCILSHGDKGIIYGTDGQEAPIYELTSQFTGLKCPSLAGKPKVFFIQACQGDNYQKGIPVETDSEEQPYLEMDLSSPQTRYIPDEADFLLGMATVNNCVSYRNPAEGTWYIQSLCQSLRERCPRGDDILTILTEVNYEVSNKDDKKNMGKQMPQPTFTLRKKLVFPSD
UniProt O43303: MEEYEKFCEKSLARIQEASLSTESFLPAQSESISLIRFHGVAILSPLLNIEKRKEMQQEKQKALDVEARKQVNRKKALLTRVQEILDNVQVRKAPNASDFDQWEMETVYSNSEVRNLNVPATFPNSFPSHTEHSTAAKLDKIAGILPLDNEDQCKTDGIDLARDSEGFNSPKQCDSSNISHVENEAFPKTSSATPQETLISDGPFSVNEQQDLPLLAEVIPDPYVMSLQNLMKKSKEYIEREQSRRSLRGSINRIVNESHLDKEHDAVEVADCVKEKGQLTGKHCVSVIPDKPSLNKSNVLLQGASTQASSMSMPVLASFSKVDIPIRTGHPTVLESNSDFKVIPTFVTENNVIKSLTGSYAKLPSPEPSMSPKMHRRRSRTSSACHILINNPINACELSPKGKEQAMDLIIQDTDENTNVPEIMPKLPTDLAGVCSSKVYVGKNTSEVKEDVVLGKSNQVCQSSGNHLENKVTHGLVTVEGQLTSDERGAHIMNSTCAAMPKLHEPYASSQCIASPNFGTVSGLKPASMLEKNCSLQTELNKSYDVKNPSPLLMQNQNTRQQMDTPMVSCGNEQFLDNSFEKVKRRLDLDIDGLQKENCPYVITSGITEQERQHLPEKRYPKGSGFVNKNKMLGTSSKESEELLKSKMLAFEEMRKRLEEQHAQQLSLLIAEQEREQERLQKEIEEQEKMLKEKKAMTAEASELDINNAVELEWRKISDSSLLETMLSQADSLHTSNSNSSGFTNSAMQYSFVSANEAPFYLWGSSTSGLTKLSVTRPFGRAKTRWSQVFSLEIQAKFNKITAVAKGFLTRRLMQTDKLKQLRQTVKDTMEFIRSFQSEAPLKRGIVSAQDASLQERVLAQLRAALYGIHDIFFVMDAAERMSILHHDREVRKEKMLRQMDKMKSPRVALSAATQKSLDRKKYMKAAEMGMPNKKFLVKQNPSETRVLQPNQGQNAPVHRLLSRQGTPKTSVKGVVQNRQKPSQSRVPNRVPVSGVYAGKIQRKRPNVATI
UniProt P50991: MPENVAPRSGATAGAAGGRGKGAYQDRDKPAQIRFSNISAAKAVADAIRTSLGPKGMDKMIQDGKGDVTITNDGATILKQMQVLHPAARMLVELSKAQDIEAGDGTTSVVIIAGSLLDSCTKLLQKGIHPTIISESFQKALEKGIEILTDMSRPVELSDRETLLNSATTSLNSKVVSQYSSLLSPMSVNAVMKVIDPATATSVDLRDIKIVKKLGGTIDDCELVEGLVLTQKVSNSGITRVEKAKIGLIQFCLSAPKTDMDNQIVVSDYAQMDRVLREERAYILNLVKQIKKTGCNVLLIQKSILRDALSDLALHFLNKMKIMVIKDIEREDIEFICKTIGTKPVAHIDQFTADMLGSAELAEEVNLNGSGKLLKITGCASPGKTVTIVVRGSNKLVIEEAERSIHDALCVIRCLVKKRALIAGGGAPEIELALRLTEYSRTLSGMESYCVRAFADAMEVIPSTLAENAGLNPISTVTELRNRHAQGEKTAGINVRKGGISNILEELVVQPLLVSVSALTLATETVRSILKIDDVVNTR
UniProt P51946: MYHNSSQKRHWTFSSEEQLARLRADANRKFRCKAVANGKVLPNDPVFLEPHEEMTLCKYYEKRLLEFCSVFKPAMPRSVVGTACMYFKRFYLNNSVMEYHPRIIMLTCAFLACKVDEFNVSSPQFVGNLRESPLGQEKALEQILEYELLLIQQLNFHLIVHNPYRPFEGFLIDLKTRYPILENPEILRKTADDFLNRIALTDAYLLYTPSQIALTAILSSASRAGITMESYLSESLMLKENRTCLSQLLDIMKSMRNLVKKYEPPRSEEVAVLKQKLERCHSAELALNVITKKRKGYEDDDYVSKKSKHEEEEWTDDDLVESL
UniProt Q92851: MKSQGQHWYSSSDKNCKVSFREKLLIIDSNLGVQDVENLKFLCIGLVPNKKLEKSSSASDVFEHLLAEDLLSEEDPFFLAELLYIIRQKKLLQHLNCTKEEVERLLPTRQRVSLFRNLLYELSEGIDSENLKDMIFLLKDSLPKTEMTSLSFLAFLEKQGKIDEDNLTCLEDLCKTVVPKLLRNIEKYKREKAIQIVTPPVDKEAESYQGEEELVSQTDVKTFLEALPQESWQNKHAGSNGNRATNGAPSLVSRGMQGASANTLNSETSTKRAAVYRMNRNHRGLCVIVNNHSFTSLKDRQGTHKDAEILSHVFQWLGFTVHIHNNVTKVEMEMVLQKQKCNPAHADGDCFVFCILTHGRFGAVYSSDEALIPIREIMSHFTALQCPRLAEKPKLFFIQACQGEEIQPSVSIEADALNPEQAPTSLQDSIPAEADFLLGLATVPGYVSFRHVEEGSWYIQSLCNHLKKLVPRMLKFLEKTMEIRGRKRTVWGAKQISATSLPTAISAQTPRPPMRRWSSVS
UniProt Q96A33: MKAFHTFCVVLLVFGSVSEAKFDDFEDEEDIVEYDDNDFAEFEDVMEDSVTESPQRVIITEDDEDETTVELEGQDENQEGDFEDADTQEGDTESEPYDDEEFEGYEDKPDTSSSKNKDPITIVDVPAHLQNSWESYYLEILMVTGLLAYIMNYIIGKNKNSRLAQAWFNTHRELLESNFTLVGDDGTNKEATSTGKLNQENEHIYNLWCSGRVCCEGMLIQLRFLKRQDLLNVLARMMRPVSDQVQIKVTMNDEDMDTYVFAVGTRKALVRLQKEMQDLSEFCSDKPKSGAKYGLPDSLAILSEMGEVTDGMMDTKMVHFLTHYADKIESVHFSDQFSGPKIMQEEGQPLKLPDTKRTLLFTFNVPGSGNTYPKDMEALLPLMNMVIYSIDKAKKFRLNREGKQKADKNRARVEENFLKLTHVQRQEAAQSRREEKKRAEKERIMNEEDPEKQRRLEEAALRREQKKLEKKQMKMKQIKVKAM
UniProt P49662: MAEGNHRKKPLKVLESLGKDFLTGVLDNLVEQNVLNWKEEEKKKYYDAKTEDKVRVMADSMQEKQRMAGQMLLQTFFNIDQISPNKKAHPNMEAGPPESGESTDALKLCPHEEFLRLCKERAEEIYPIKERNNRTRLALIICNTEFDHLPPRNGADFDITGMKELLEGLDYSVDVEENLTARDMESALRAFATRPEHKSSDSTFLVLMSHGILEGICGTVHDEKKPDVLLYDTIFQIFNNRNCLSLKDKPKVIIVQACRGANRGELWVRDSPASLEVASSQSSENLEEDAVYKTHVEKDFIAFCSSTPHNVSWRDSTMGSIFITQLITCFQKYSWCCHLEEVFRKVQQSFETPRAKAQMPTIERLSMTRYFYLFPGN

Compound: Cc1cc(ccc1-c1ccccc1)C(=O)N1CCCN(CC1)C(=O)CCl [compound 10]
Test: probe-labelled cysteine peptide fold change vs DMSO (competition) (log2 fold change); higher = less target engagement (more negative = stronger competition)
Conditions: THP-1, incubation time: 4 h
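Note: competitive profiling in live THP-1 cells: cysteine peptides tagged with an iodoacetamide desthiobiotin (IA-DTB) probe, intensity after compound treatment relative to DMSO-treated cells.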

Target	probe-labelled cysteine peptide fold change (10 µM)	probe-labelled cysteine peptide fold change (50 µM)
CARS_P49589_27_VQPQWSPPAGTQPCR (UniProt P49589)	-0.136	-0.695
CCAR1_Q8IX12_744_SGKFDCSIMSLSVLLDYR (UniProt Q8IX12)	0.107	0.256
CBR1_P16152_226_ILLNACCPGWVR (UniProt P16152)	-0.103	-0.297
CC2D1A_Q6P1N0_590_QQHEMCLNHSNQFTQLGNITETTKFEK (UniProt Q6P1N0)	0.112	-0.472
CASP8AP2_Q9UKL3_1647_MGHSDEVADECFK (UniProt Q9UKL3)	-0.515	-0.339
CBFA2T3_O75081_405_HLNNLLNCIMDMVEK (UniProt O75081)	-0.0172	0.0849
CC2D1A_Q6P1N0_590_QQHEMCLNHSNQFTQLGNITETTK (UniProt Q6P1N0)	-0.115	0.152
CASP9_P55211_272_IVNIFNGTSCPSLGGKPK (UniProt P55211)	-0.0912	-0.316
CASP8_Q14790_309_IYQLMDHSNMDCFICCILSHGDK (UniProt Q14790)	0.0842	-0.247
CC2D1B_Q5T0F9_809_LENECEIR (UniProt Q5T0F9)	-0.0993	0.295
CASP3_P42574_184_GTELDCGIETDSGVDDDMACHK (UniProt P42574)	0.00328	-0.508
CCP110_O43303_285_HCVSVIPDKPSLNK (UniProt O43303)	-0.205	0.0702
CBLL1_Q75N03_109_DDTPVHFCDK (UniProt Q75N03)	0.191	0.628
CCT5_P48643_377_MLVIEQCK (UniProt P48643)	0.122	0.328
CCT4_P50991_379_ITGCASPGK (UniProt P50991)	-0.0252	-0.0456
CAPNS1_P04632_232_RYSDESGNMDFDNFISCLVR (UniProt P04632)	0.00384	0.171
CCAR2_Q8N163_515_PGCVNLSLHGIVEDR (UniProt Q8N163)	0.199	0.0744
CASP1_P29466_397_CFYLFPGH (UniProt P29466)	0.0684	-0.176
CCNH_P51946_57_VLPNDPVFLEPHEEMTLCK (UniProt P51946)	0.162	0.455
CAPZB_P47756_147_GCWDSIHVVEVQEK (UniProt P47756)	0.126	0.0545
CCT4_P50991_450_TLSGMESYCVR (UniProt P50991)	0.158	-0.0266

3 entries from above, bar-delimited.
Target | probe-labelled cysteine peptide fold change (10 µM) | probe-labelled cysteine peptide fold change (50 µM)
CASP8AP2_Q9UKL3_1647_MGHSDEVADECFK (UniProt Q9UKL3) | -0.515 | -0.339
CCP110_O43303_285_HCVSVIPDKPSLNK (UniProt O43303) | -0.205 | 0.0702
CAPZB_P47756_147_GCWDSIHVVEVQEK (UniProt P47756) | 0.126 | 0.0545

The listing continues.

Target	probe-labelled cysteine peptide fold change (10 µM)	probe-labelled cysteine peptide fold change (50 µM)
CASP10_Q92851_169_QGKIDEDNLTCLEDLCK (UniProt Q92851)	-0.0825	-0.564
CAPNS1_P04632_190_SGTICSSELPGAFEAAGFHLNEHLYNMIIR (UniProt P04632)	0.0642	0.226
CAPN1_P07384_678_YSEPDLAVDFDNFVCCLVR (UniProt P07384)	0.0508	0.152
CCNH_P51946_280_CHSAELALNVITK (UniProt P51946)	-0.0322	0.124
CASP10_Q92851_169_IDEDNLTCLEDLCK (UniProt Q92851)	-0.0609	0.0728
CCNDBP1_O95273_89_FCEQVHAAIK (UniProt O95273)	-0.0837	0.385
CCDC47_Q96A33_214_VCCEGMLIQLR (UniProt Q96A33)	-0.198	0.124
CASP8_Q14790_309+313_IYQLMDHSNMDCFICCILSHGDK (UniProt Q14790)	0.152	-0.000519
CCDC77_Q9BR77_164_IQNLLALVGTDAGEVTYFCK (UniProt Q9BR77)	0.0104	-0.0631
CARD9_Q9H257_178_CKEENYDLAMR (UniProt Q9H257)	0.317	-0.0989
CASKIN2_Q8WXE0_185_VAQLLLNSHLCVALLEGEAKDPCDPNYTTPLHLAAK (UniProt Q8WXE0)	-0.0127	-1.02
CCAR1_Q8IX12_539_ALTGIDLSVCTQWYR (UniProt Q8IX12)	-0.272	0.0717
CASP4_P49662_337_YSWCCHLEEVFRK (UniProt P49662)	-0.1	-0.0368
CCAR1_Q8IX12_579_TVPAHVETVVLFFPDVWHCLPTR (UniProt Q8IX12)	-0.0511	0.0252
CAPN7_Q9Y6W3_329_DGEPEYNPCGK (UniProt Q9Y6W3)	-0.0811	-0.247
CAT_P04040_460_RLCENIAGHLK (UniProt P04040)	0.0989	0.021
CCDC47_Q96A33_283_EMQDLSEFCSDKPK (UniProt Q96A33)	-0.0254	0.053
CARS_P49589_182_LTGEEVNSCVEVLLEEAK (UniProt P49589)	-0.181	-0.461
CBR3_O75828_150_AFENCSEDLQER (UniProt O75828)	0.369	0.0721
CASP4_P49662_217_SSDSTFLVLMSHGILEGICGTVHDEK (UniProt P49662)	0.193	0.00467
CAPNS1_P04632_144_TDGFGIDTCR (UniProt P04632)	0.149	-0.00453
